Measurements published in the supplement of paper PMC3682954.
Where a name gives a salt, the structure may show the parent alone. ± gives the standard deviation of the averaged measurements. Some of the results follow. Many values rest on one well or one pass, so single values are uncertain.

Tested on: RAW 264.7
Test: HMGB1-induced TNF-alpha production relative to HMGB1-stimulated control; higher = more TNF-alpha secretion (less inhibition)
Conditions: stimulus: HMGB1 5 ug/ml, 18 h
[1] = compound concentration: 1 ug/ml

SMILES	HMGB1-induced TNF-alpha production (compound concentration: 3 uM) [%]	HMGB1-induced TNF-alpha production [1] [%]
C[C@]12C=CC(=O)C=C1CC[C@H]1[C@@H]3C[C@@H](O)[C@](O)(C(=O)CO)[C@@]3(C)C[C@H](O)[C@@]12F	49.1	
C[C@]12C=CC(=O)C=C1CC[C@H]1[C@@H]3C[C@@H](O)[C@](O)(C(=O)CO)[C@@]3(C)C[C@H](O)[C@@]12F [Triamcinolone]	40.1 ± 9.6	
CC1(C)O[C@@H]2C[C@H]3[C@@H]4CCC5=CC(=O)CC[C@]5(C)[C@@]4(F)[C@@H](O)C[C@]3(C)[C@]2(C(=O)CCl)O1 [Halcinonide]	45.5	
CC1(C)O[C@@H]2C[C@H]3[C@@H]4CCC5=CC(=O)CC[C@]5(C)[C@@]4(F)[C@@H](O)C[C@]3(C)[C@]2(C(=O)CCl)O1	49.1	
COc1cc(/C=C/C(=O)N2CCCCC2=O)cc(OC)c1OC		31.8
CCN(CC)C(=O)/C(C#N)=C/c1cc(O)c(O)c([N+](=O)[O-])c1 [Entacapone]	134 ± 19	
C[C@@H]1O[C@@H](OC[C@H]2O[C@@H](Oc3c(-c4ccc(OCCO)c(OCCO)c4)oc4cc(OCCO)cc(O)c4c3=O)[C@H](O)[C@@H](O)[C@@H]2O)[C@H](O)[C@H](O)[C@H]1O	80.1	
CCCCCCCC/C=C\CCCCCCCC(=O)NCCO [N-Oleoylethanolamine]	91.4	
C[C@@H](O)[C@H]1C(=O)N2C(C(=O)O)=C(S[C@@H]3CN[C@H](C(=O)N(C)C)C3)[C@H](C)[C@H]12	108	
C[C@@H](O)[C@H]1C(=O)N2C(C(=O)O)=C(S[C@@H]3CN[C@H](C(=O)N(C)C)C3)[C@H](C)[C@H]12 [Meropenem]	106 ± 24	
Cc1cc(C)cc(OCC2CNC(=O)O2)c1 (configuration not stated)	82.2	
CC(=O)O[C@H]1C[C@@H]2CC[C@@H]3[C@H](CC[C@@]4(C)[C@H]3C[C@H]([N+]3(C)CCCCC3)[C@@H]4OC(C)=O)[C@@]2(C)C[C@@H]1N1CCCCC1	99 ± 4.6	
CC(=O)O[C@H]1C[C@@H]2CC[C@@H]3[C@H](CC[C@@]4(C)[C@H]3C[C@H]([N+]3(C)CCCCC3)[C@@H]4OC(C)=O)[C@@]2(C)C[C@@H]1N1CCCCC1 [Vecuronium bromide]	119	
CC(=O)O[C@H]1C[C@@H]2CC[C@@H]3[C@H](CC[C@@]4(C)[C@H]3C[C@H]([N+]3(C)CCCCC3)[C@@H]4OC(C)=O)[C@@]2(C)C[C@@H]1N1CCCCC1 [Vecuronium]	79.7	
C[C@H]1O[C@@H](n2cc(F)c(=O)[nH]c2=O)[C@H](O)[C@@H]1O [Doxifluridine]	91.4	
C[C@H]1O[C@@H](n2cc(F)c(=O)[nH]c2=O)[C@H](O)[C@@H]1O [5-fluoro-5'-deoxyuridine]	93.4	
C[C@H]1O[C@@H](n2cc(F)c(=O)[nH]c2=O)[C@H](O)[C@@H]1O	75.7	
Clc1ccc(C(c2ccc(Cl)cc2)[n+]2ccn(CC(OCc3ccc(Cl)cc3Cl)c3ccc(Cl)cc3Cl)c2)cc1 (configuration not stated) [Calmidazolium chloride]	76.5	
O=c1c(-c2ccc(O)cc2)coc2cc(O)ccc12 [Daidzein]	94.7	
O=c1c(-c2ccc(O)cc2)coc2cc(O)ccc12		65.3
CC(C)NC[C@H](O)COc1cccc2ccccc12 [Propranolol S(-)]	102	
CC(C)NC[C@H](O)COc1cccc2ccccc12 [(S)-propranolol hydrochloride]	111	
CC(C)NC[C@H](O)COc1cccc2ccccc12 [(S)-Propranolol hydrochloride]	91.9	
CC1(C)CC[C@]2(C(=O)O)CC[C@]3(C)C(=CC[C@@H]4[C@@]5(C)CC[C@H](O)C(C)(C)[C@@H]5CC[C@]43C)[C@@H]2C1 [Oleanolic acid; oleanol;  caryophyllin]		73.3

SMILES	HMGB1-induced TNF-alpha production (compound concentration: 3 uM) [%]	HMGB1-induced TNF-alpha production [1] [%]
CN1C(=O)OC(C)(C)C1=O [Trimethadione]	59.8	
CN1C(=O)OC(C)(C)C1=O	91.4	
CC(=O)CCCCn1c(=O)c2c(ncn2C)n(C)c1=O [Pentoxifylline]	100 ± 15	
CC(=O)CCCCn1c(=O)c2c(ncn2C)n(C)c1=O	81.3	
CC(=O)O[C@@H]1C[C@]2(C)[C@@H](C(C)=O)CC[C@H]2[C@@H]2CCC3=CC(=O)CC[C@]3(C)[C@H]21 [11-alpha-Acetoxyprogesterone]		59.4
CN(C/C=C/c1ccccc1)Cc1cccc2ccccc12 [Naftifine hydrochloride]	108	
OCCN1CCN(CCCN2c3ccccc3C=Cc3ccccc32)CC1 [Opipramol dihydrochloride]	88.9 ± 1.9	
O=C(O)C=C1CCCc2ccccc2C1O (configuration not stated)	121	
CN(C)CCCSC(=N)N [Dimaprit dihydrochloride]	98.5	
CCCC(CCC)C(=O)O[C@H]1C[C@H]2CC[C@@H](C1)[N+]2(C)C [Anisotropine methyl bromide]	101	
NCCNCCNCCN	93.7	
Cc1onc(-c2c(F)cccc2Cl)c1C(=O)N[C@@H]1C(=O)N2[C@@H]1SC(C)(C)[C@@H]2C(=O)O [Flucloxacillin sodium]	90	
O=C(CCc1ccc(O)cc1)c1c(O)cc(O)cc1O[C@@H]1OC(CO)[C@@H](O)[C@@H](O)C1O (some centres not stated) [Phloridzin]	106	
Cc1c(C(=O)O)c(O)cc2c1C(=O)c1c(O)c([C@H]3O[C@H](CO)[C@@H](O)[C@H](O)[C@H]3O)c(O)c(O)c1C2=O		68.7
O=C(NCCN1CCOCC1)c1ccc(Cl)cc1 [Moclobemide]	97.6 ± 30	
O=C(NCCN1CCOCC1)c1ccc(Cl)cc1 [4-Chloro-N-(2-morpholin-4-yl-ethyl)-benzamide]	118	
COc1c(C)c2c(c(O)c1C/C=C(\C)CCC(=O)O)C(=O)OC2	25.4 ± 3.3	
COc1c(C)c2c(c(O)c1C/C=C(\C)CCC(=O)O)C(=O)OC2 [Mycophenolic Acid]	17.8	
COc1c(C)c2c(c(O)c1C/C=C(\C)CCC(=O)O)C(=O)OC2 [Mycophenolic acid]		-9.9
O=C(O)c1ccc(S(=O)(=O)N(Cl)Cl)cc1	90.1	
O=C(Oc1ccccc1C(=O)O)c1ccccc1O	84.4	
CCCCCNC(=N)N/N=C/c1c[nH]c2ccc(OC)cc12	96.1	
NS(=O)(=O)c1cc(Cl)c(Cl)c(S(N)(=O)=O)c1 [Dichlorphenamide]	111	

Some of the entries above, set out differently.

| SMILES | HMGB1-induced TNF-alpha production (compound concentration: 3 uM) [%] | HMGB1-induced TNF-alpha production [1] [%] |
| --- | --- | --- |
| CC(=O)O[C@@H]1C[C@]2(C)[C@@H](C(C)=O)CC[C@H]2[C@@H]2CCC3=CC(=O)CC[C@]3(C)[C@H]21 [11-alpha-Acetoxyprogesterone] |  | 59.4 |
| CN(C/C=C/c1ccccc1)Cc1cccc2ccccc12 [Naftifine hydrochloride] | 108 |  |
| OCCN1CCN(CCCN2c3ccccc3C=Cc3ccccc32)CC1 [Opipramol dihydrochloride] | 88.9 ± 1.9 |  |
| O=C(O)C=C1CCCc2ccccc2C1O (configuration not stated) | 121 |  |
